Experimental data from patent US20140072986.

Each sequence was assayed against alpha-synuclein monomer (UniProt P37840) (assay: binding assay). Conditions: aptamer blotting, 100 nM; purified recombinant protein; protein details: expressed from pET-28a(+) in E. coli BL21(DE3); label: 5'-FITC; folded or branched DNA.
CAGGGGTGGGCAAAGGGCGGTGGTG [T-SO504]: no binding.
CGAGGGGCGTCTGGGAGTGGTCGG [T-SO554]: no binding.
GCCTGTGGTGTTGGGGCGGGTGCG [T-SO508]: no binding.
GCGGTAGGGTGTGAGCGGAAGGGG [T-SO602]: no binding.
GCGTGTGGGGCTTGGGCAGCTGGG [T-SO552]: no binding.
GGGTCGGCTGTCCGTGGGTGGGGA [T-SO606]: no binding.
GGTGCGGCGGGACTAGTGGGTGTG [T-SO530]: no binding.
GGTGGCTGGAGGGGGCGCGAACG [T-SO517]: no binding.

Same assay, conditions: aptamer blotting; same specificity as T-SO504; purified recombinant protein; protein details: expressed from pET-28a(+) in E. coli BL21(DE3); label: 5'-FITC; folded or branched DNA; variant of T-SO504
“AAAAACAGGGGTGGGCAAAGGGCGGTGGTGTTTTTCAGGGGTGGGCAAAGGGCGGTGGTG [504W]”: no binding.

What follows are sequences tested against amyloid beta 1-40 fibril (UniProt P05067) (assay: binding assay). Conditions: aptamer blotting, 200 nM; spot seen, oligomer spot stronger; protein details: Peptide Institute peptide; label: FITC via 18-mer complementary strand at 3' end; folded or branched DNA.
CGAGGGGCGTCTGGGGGGGAGGGA [2G16]: binds more weakly.
CGGGGGGCCTGAGGGGGGGAGGGA [3G4]: binds more weakly.

Same assay, conditions: aptamer blotting, 500 nM; protein details: Peptide Institute peptide; label: 5'-FITC; folded or branched DNA
CAGGGGTGGGCAAAGGGCGGTGGTG [T-SO504]: no binding.
CGAGGGGCGTCTGGGAGTGGTCGG [T-SO554]: no binding.
GCCTGTGGTGTTGGGGCGGGTGCG [T-SO508]: no binding.
GCGGTAGGGTGTGAGCGGAAGGGG [T-SO602]: no binding.
GCGTGTGGGGCTTGGGCAGCTGGG [T-SO552]: no binding.
GGGTCGGCTGTCCGTGGGTGGGGA [T-SO606]: no binding.
GGTGCGGCGGGACTAGTGGGTGTG [T-SO530]: no binding.
GGTGGCTGGAGGGGGCGCGAACG [T-SO517]: no binding.

These sequences were tested on luciferase (assay: binding assay). Conditions: aptamer blotting, 5 pmol protein; purified recombinant protein; protein details: recombinantly produced in E. coli; label: 5'-FITC; folded or branched DNA.
GGGTCGGCTGTCCGTGGGTGGGGA [T-SO606]: no binding.
GGTGGCTGGAGGGGGCGCGAACG [T-SO517]: no binding.

These sequences were tested on IgG antibody (assay: binding assay). Conditions: aptamer blotting, 5 pmol protein; protein details: Sigma Aldrich; label: 5'-FITC; folded or branched DNA.
GGGTCGGCTGTCCGTGGGTGGGGA [T-SO606]: no binding.
GGTGGCTGGAGGGGGCGCGAACG [T-SO517]: no binding.

These sequences were tested against amyloid beta 1-40 monomer (UniProt P05067) (assay: binding assay). Conditions: aptamer blotting, 200 nM; protein details: Peptide Institute peptide; label: FITC via 18-mer complementary strand at 3' end; folded or branched DNA.
CGAGGGGCGTCTGGGGGGGAGGGA [2G16]: no binding.
CGGGGGGCCTGAGGGGGGGAGGGA [3G4]: no binding.

Same assay, conditions: aptamer blotting, 500 nM; protein details: Peptide Institute peptide; label: 5'-FITC; folded or branched DNA
CAGGGGTGGGCAAAGGGCGGTGGTG [T-SO504]: no binding.
CGAGGGGCGTCTGGGAGTGGTCGG [T-SO554]: no binding.
GCCTGTGGTGTTGGGGCGGGTGCG [T-SO508]: no binding.
GCGGTAGGGTGTGAGCGGAAGGGG [T-SO602]: no binding.
GCGTGTGGGGCTTGGGCAGCTGGG [T-SO552]: no binding.
GGGTCGGCTGTCCGTGGGTGGGGA [T-SO606]: no binding.
GGTGCGGCGGGACTAGTGGGTGTG [T-SO530]: no binding.
GGTGGCTGGAGGGGGCGCGAACG [T-SO517]: no binding.

Negatives hold for the conditions tested. For part of these data: A weaker result is weaker than the reference pair of the same experiment. For part of these data: The exact form of at least one protein or probe is not confirmed.
